Measurements reported in article PMC1215486.
These are yes or no findings as the source states them, for the method shown. Binding seen in cells or lysates may run through a third protein. Some results given as binding are weak or reduced against the parent protein; the word gives no strength. Sequences can lack the tags named with a protein.

The chains behind the UniProt entries cited, without tags or fusion partners. Residues count along the entry.
UniProt Q9ULL4, residues 45-1909: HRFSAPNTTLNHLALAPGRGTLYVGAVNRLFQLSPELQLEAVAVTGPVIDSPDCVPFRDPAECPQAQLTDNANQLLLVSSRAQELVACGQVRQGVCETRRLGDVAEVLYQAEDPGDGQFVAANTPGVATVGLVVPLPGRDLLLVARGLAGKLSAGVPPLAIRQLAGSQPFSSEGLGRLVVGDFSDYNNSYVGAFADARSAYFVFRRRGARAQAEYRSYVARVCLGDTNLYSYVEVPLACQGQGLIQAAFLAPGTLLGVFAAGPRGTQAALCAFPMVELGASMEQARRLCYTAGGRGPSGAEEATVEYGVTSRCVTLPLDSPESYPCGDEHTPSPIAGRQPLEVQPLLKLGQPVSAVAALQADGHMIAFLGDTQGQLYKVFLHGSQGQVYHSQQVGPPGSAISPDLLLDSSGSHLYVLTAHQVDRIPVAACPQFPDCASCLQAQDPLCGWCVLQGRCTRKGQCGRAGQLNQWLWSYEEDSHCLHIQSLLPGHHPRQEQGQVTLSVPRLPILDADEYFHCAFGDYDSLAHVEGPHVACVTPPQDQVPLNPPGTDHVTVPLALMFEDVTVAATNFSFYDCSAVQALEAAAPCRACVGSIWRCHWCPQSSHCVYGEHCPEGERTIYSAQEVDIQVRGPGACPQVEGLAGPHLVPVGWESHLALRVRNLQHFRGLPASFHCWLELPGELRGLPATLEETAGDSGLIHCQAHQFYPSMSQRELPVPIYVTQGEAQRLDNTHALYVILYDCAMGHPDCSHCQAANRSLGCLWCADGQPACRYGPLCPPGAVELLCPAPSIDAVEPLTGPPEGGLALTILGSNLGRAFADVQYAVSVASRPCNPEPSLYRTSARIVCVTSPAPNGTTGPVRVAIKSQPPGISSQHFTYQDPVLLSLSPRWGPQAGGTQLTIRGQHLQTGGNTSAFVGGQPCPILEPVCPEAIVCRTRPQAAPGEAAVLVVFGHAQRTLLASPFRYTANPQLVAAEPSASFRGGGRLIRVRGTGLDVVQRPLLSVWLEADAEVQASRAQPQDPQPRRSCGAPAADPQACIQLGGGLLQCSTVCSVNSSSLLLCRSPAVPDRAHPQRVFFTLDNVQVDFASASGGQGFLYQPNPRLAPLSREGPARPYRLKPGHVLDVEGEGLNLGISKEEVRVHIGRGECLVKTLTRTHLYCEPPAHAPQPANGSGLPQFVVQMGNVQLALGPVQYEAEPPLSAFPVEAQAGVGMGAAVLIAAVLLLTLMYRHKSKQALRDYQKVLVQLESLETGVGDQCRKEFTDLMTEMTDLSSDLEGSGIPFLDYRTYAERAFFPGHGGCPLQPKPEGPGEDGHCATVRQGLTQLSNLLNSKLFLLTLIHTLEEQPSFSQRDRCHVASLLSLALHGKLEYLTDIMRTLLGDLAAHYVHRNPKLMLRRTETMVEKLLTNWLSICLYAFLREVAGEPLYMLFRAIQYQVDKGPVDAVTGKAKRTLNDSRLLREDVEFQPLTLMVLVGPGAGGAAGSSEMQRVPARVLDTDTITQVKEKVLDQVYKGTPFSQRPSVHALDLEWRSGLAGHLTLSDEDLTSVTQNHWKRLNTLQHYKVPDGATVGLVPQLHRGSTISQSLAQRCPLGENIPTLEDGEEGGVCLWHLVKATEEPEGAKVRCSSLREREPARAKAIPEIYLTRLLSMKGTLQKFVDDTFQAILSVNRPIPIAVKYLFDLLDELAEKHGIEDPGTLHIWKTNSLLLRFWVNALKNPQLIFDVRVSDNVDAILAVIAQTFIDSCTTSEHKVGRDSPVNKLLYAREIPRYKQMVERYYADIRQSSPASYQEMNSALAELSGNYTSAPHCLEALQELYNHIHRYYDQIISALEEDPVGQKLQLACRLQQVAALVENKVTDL

Molecular target: non-tagged full-length human plexin B3 (pIRES/B3) (human) (UniProt Q9ULL4)
Assay: co-IP; data not shown: recombinant full-length B3 and semaphorin 5A co-expressed in the cells, conditions as for the homophilic co-IP of B3

B1: human full-length semaphorin 5A (cloned into pFLAG) (ligand, UniProt Q13591 23-1074)
chain: EAQGTTQCQRTEHPVISYKEIGPWLREFRAKNAVDFSQLTFDPGQKELVVGARNYLFRLQLEDLSLIQAVEWECDEATKKACYSKGKSKEECQNYIRVLLVGGDRLFTCGTNAFTPVCTNRSLSNLTEIHDQISGMARCPYSPQHNSTALLTAGGELYAATAMDFPGRDPAIYRSLGILPPLRTAQYNSKWLNEPNFVSSYDIGNFTYFFFRENAVEHDCGKTVFSRAARVCKNDIGGRFLLEDTWTTFMKARLNCSRPGEVPFYYNELQSTFFLPELDLIYGIFTTNVNSIAASAVCVFNLSAIAQAFSGPFKYQENSRSAWLPYPNPNPHFQCGTVDQGLYVNLTERNLQDAQKFILMHEVVQPVTTVPSFMEDNSRFSHVAVDVVQGREALVHIIYLATDYGTIKKVRVPLNQTSSSCLLEEIELFPERRREPIRSLQILHSQSVLFVGLREHVVKIPLKRCQFYRTRSTCIGAQDPYCGWDVVMKKCTSLEESLSMTQWEQSISACPTRNLTVDGHFGVWSPWTPCTHTDGSAVGSCLCRTRSCDSPAPQCGGWQCEGPGMEIANCSRNGGWTPWTSWSPCSTTCGIGFQVRQRSCSNPTPRHGGRVCVGQNREERYCNEHLLCPPHMFWTGWGPWERCTAQCGGGIQARRRICENGPDCAGCNVEYQSCNTNPCPELKKTTPWTPWTPVNISDNGGHYEQRFRYTCKARLADPNLLEVGRQRIEMRYCSSDGTSGCSTDGLSGDFLRAGRYSAHTVNGAWSAWTSWSQCSRDCSRGIRNRKRVCNNPEPKYGGMPCLGPSLEYQECNILPCPVDGVWSCWSPWTKCSATCGGGHYMRTRSCSNPAPAYGGDICLGLHTEEALCNTQPCPESWSEWSDWSECEASGVQVRARQCILLFPMGSQCSGNTTESRPCVFDSNFIPEVSVARSSSVEEKRCGEFNMFHMIAVGLSSSILGCLLTLLVYTYCQRYQQQSHDATVIHPVSPAPLNTSITNHINKLDKYDSVEAIKAFNKNNLILEERNKYFNPHLTGKTYSNAYFTDLNNYDEY
  binding: binds
